Some of these results come from one statement about several compounds together. At least one compound was matched to its structure with a doubt left.
Target: T1, IL-17A-IL-17RA binding (Homo sapiens, UniProt Q96F46)
T1 construct: human IL-17RA-Fc (extracellular domain 1-322 AA fused with Fc region of human IgG1 at the C-terminus); purchased Sino Biological Inc
Experiment: IL-17A-IL-17RA binding assay (ELISA)
Conditions: range given for the group; units given in the value
Protocol: IL-17A-IL-17RA binding assay. ELISA plates were coated with human IL-17A or IL-17E (2 μg/ml in PBS). Human IL-17RA-Fc or human IL-17RB-Fc (150 ng/ml) were added and incubated for 1 h, followed by incubation with human HRP-conjugated anti human IgG Fc secondary antibody for 1 h. ELISA were finally developed using tetramethylbenzidine substrate.

Protein sequences, listed by entry. Tags and fused reporters are not part of them. Residues count along the entry.
UniProt Q96F46, 33-322: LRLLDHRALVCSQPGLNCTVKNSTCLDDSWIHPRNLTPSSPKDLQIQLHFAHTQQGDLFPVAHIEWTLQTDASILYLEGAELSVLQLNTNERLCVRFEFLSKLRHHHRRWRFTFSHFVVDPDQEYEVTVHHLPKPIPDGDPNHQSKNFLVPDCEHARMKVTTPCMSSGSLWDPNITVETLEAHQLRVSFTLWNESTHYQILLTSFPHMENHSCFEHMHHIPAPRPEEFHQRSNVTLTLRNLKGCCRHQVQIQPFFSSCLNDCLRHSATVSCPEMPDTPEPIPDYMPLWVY

O=C(O[C@@H]1Cc2c(O)cc(O)cc2O[C@@H]1c1cc(O)c(O)c(O)c1)c1cc(O)c(O)c(O)c1 [epigallocatechin gallate]
IC50: 0.3 to 10 µM

Source: patent US10385034B2, “Flavonoid IL-17A inhibitors” (THE CLEVELAND CLINIC FOUNDATION, priority 2014, dated 2019)
